Results from patent US20050053940.

Key:
[1] = molecular target: T1, HD/TF-1 C-terminal fragment (Homo sapiens) (UniProt Q9NR83); experiment: footprint; details: DNase I; protects 7 bp gccggcg, three sites with 13 bp spacers; 10-400 ng protein; purified recombinant protein; protein details: GST fusion (pGEX-5); label: 32P
T1 sequence: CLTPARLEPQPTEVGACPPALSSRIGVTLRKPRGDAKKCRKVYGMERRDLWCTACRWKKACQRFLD

[2] = molecular target: T2, HD/TF-2 C-terminal fragment (Homo sapiens) (UniProt Q9H8N7); experiment: footprint; details: DNase I; protects 7 bp gccggcg, three sites with 13 bp spacers; 10-400 ng protein; purified recombinant protein; protein details: GST fusion (pGEX-5); label: 32P
T2 sequence: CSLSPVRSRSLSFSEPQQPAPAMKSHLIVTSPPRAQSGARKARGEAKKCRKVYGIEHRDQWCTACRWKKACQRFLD

[3] = molecular target: T1, HD/TF-1 C-terminal fragment (Homo sapiens); experiment: EMSA; details: C-terminal region is the DNA-binding region; purified recombinant protein; protein details: GST fusion (pGEX-5); label: 32P
[4] = molecular target: T3, HD/TF-1 N-terminal fragment (Homo sapiens) (UniProt Q9NR83); experiment: EMSA; details: implied; binding reported only for C-terminal fragment; purified recombinant protein; protein details: GST fusion (pGEX-5); label: 32P
T3 sequence: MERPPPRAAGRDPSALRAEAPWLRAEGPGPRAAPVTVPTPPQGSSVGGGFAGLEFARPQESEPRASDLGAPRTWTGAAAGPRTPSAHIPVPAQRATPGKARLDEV

[5] = molecular target: T4, HD/TF-1 middle fragment (Homo sapiens) (UniProt Q9NR83); experiment: EMSA; details: implied; binding reported only for C-terminal fragment; purified recombinant protein; protein details: GST fusion (pGEX-5); label: 32P
T4 sequence: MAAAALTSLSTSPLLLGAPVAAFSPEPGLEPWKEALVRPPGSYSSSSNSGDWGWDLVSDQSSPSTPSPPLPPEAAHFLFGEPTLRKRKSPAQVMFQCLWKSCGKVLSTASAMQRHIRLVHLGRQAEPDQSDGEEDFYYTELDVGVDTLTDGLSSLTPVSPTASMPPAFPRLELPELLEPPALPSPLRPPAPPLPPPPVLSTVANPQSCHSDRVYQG

[6] = molecular target: T5, clone 2 cDNA product (partial HD/TF-1) (Homo sapiens) (UniProt Q9NR83); experiment: one hybrid; details: yeast one-hybrid reporter, unlabeled; protein in cells; label: 32P
T5 sequence (limits assumed): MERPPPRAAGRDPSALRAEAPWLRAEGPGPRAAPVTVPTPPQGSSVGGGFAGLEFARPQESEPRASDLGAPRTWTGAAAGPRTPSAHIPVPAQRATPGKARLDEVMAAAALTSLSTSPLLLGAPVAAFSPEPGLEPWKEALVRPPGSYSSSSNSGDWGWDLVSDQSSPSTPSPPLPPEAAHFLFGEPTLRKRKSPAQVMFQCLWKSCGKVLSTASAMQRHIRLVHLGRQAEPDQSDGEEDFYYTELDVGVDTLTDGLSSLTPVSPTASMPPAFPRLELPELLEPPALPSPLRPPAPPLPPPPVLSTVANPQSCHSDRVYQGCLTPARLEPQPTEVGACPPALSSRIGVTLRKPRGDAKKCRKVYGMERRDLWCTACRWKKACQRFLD

[7] = molecular target: T6, clone 8 cDNA product (HD/TF-2) (Homo sapiens) (UniProt Q9H8N7); experiment: one hybrid; details: yeast one-hybrid reporter, unlabeled; protein in cells; protein details: GAL4 activation domain fusion (pACT2); label: 32P
T6 sequence (limits assumed): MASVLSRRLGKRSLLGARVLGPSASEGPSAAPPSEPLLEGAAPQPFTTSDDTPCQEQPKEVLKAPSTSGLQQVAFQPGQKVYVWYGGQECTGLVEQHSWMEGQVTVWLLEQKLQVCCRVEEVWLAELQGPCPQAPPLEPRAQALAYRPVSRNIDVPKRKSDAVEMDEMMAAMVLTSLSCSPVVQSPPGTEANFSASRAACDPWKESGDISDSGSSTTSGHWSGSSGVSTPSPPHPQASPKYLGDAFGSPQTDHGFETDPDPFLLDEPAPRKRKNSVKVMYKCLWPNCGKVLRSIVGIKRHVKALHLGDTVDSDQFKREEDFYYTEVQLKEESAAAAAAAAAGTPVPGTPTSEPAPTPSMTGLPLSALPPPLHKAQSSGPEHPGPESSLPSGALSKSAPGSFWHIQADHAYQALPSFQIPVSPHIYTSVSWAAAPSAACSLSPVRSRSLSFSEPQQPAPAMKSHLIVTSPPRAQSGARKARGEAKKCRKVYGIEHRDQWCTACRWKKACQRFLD

## GTTGAGCCCCGCGCCTTCGCCCGGGTGGGGCGCTGCGCTGTCAGCGGCTTGCTGTGTGAGGCAGAACCTGCGGGGGCAGGGGCGGGCTGGTTCCCTGGCCAGCCATTGGCAGAGTCCGCAGGCTAGGGCTGTCAATCATGCTGGCCGGCGTGGCCCCGCCTCCGCCGGCGCGGCCCCGCCTCCGCCGGCGCACGTCTGGGACGCAAGGCGCCGTGGGGGCTGCCGGGACGGGTCCAAGATGGACGGCCGCTCAGGTTCTGCTTTTACCTGCGGCCCAGAGCCCCATTCATTGCCCCGGTGCTGAGCGGCGCCGCGAGTCGGCCCGAGGCCTCCGGGGACTGCCGTGCCGGGCGGGAGACCGCCATGGCGACCCTGGAAAAGCTGATGAAGGCCTTCGAGTCCCTCAAGTCCTTCCAGCAGCAGCAGCAGCAGCAGCAGCAGCAGCAGCAGCAGCAGCAGCAGCAGCAGCAGCAGCAGCAACAGCCGCCACCGCCGCCGCCGCCGCCGCCGCCTCCTCAGCTTCCTCAGCC (double strand) [HD gene R1+R2 (-364 to -113)]
[1]
  binding result: binds
[2]
  binding result: binds

## GTTGAGCCCCGCGCCTTCGCCCGGGTGGGGCGCTGCGCTGTCAGCGGCTTGCTGTGTGAGGCAGAACCTGCGGGGGCAGGGGCGGGCTGGTTCCCTGGCCAGCCATTGGCAGAGTCCGCAGGCTAGGGCTGTCAATCATGCTGGCCGGCGTGGCCCCGCCTCCGCCGGCGCGGCCCCGCCTCCGCCGGCGCACGTCTGGGACGCAAGGCGCCGTGGGGGCTGCCGGGACGGGTCCAAGATGGACGGCCGCTCAGGTTCTGCTTTTACCTGCGGCCCAGAGCCCCATTCATTGCCCCGGTGCTGAGCGGCGCCGCGAGTCGGCCCGAGGCCTCCGGGGACTGCCGTGCCGGGCGGGAGACCGCCATGGCGACCCTGGAAAAGCTGATGAAGGCCTTCGAGTCCCTCAAGTCCTTCCAGCAGCAGCAGCAGCAGCAGCAGCAGCAGCAGCAGCAGCAGCAGCAGCAGCAGCAGCAGCAGCAACAGCCGCCACCGCCGCCGCCGCCGCCGCCGCCTCCTCAGCTTCCTCAGCC (double strand) [HD gene R2 (-230 to -113)]
[3]
  binding result: binds
[4]
  binding result: no binding
[5]
  binding result: no binding
[6]
  activity on this sequence: active
[7]
  activity on this sequence: active

For at least one entry, the source does not settle the construct or the ends of the probe. For some of these results: A negative result means that nothing was seen under these conditions. Where a protein sequence is shown, tags need not be part of it.
